From patent publication US20260028400A1
These are yes or no findings as the source states them, for the method shown. Some binding calls cover weakened binding; strength is not graded here.

Sequences of proteins named here, by UniProt entry; tags and fusion partners are left off. Residues count along the entry.
human ROR1 (Q01973, residues 30-403): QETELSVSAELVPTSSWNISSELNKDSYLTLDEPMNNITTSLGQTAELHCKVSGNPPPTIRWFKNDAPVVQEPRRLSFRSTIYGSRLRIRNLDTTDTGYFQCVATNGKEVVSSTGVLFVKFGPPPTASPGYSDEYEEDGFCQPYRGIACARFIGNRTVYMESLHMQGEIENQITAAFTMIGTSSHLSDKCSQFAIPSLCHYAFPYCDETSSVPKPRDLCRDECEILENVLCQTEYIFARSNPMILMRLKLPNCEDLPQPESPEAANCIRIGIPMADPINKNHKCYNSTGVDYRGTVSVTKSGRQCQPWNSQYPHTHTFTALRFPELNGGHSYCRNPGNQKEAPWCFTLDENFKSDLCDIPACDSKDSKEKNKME
FZD+KRD (Q01973, residues 165-395): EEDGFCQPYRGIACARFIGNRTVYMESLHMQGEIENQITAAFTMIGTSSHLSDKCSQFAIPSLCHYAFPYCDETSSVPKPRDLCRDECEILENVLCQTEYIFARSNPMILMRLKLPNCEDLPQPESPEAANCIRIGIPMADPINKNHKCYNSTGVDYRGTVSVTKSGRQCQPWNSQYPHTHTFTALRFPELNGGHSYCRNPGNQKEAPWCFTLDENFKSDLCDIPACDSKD
KRD (Q01973, residues 308-395): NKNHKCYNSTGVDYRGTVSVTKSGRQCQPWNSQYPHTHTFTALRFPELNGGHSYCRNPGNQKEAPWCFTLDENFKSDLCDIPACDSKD
UniProt Q9Z139, residues 30-403: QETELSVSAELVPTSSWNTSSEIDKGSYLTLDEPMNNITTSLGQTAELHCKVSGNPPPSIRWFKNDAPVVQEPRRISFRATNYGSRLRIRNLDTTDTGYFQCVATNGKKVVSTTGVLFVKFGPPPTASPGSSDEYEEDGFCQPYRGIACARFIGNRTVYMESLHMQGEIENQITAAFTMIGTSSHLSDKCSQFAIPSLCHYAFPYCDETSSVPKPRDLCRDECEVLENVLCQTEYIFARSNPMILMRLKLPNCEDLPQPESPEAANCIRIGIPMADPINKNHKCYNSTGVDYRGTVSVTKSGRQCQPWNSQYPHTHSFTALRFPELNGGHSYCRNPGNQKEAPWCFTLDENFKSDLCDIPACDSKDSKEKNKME

Columns and labels:
KRD (human) = KRD (human) (UniProt Q01973); test: ELISA, IgG on coated domain, OD450
FZD+KRD (human) = FZD+KRD (human) (UniProt Q01973); test: ELISA, IgG on coated domain, OD450
human ROR1 (human) [1] = biological target: human ROR1 (human) (UniProt Q01973); test: ELISA, IgG on coated human ROR1, OD450
mouse ROR1 (mouse) [2] = biological target: mouse ROR1 (mouse) (UniProt Q9Z139); test: SPR (Biacore 3000)
human ROR1 (human) [3] = biological target: human ROR1 (human) (UniProt Q01973); test: SPR (Biacore 3000)
mouse ROR1 (mouse) [4] = biological target: mouse ROR1 (mouse) (UniProt Q9Z139); test: ELISA, IgG on coated mouse ROR1, OD450

B1: P015002 (antibody, V domains shown)
VH: EVQLLESGGGLVQPGGSLRLSCAASGFTFSDYSMSWVRQAPGKGLEWVSGISHNGGSTYYADSVKGRFTISRDNSKNTLYLQMSSLRAEDTAVYYCARDVSRWSKTRWSYDNAMDVWGQGTLVTVSS
VL: QSVLTQPPSASGTPGQRVTISCTGSSSNIGSNYVSWYRQLPGTAPKLLIYSDSNRPSGVPDRFSGSKSGTSASLAISGLRSEDEADYYCATWDASLSAYVFGGGTKLTVL
For B1, the binding (KRD (human)) was “no binding (tested: 300 nM)”, the binding (FZD+KRD (human)) was “binds” and the binding (human ROR1 (human) [1]) was “binds”. The binding (mouse ROR1 (mouse) [2]) was “binds”, the binding (human ROR1 (human) [3]) was “binds” and the binding (mouse ROR1 (mouse) [4]) was “binds”.
